In PubChem BioAssay AID540256 (National Center for Advancing Translational Sciences (NCATS), 2011):
Out of some 300,000 compounds screened, about 3,700 (1.2%) were called active. The shares of active, inactive and inconclusive entries below differ from those in the screen. The call rests on the fitted dose curve; tested in HEK293 cells. A potency beside an inconclusive call is a rough fit, not a confirmed value.

assay: qHTS for Inhibitors of binding or entry into cells for Lassa Virus; conditions: Lassa virus pseudotype entry inhibition, cell reporter; activity change, negative = inhibition: at 37.9 µM (top of the series) unless noted; further: nearly all actives have a fitted effect of over 50% in size
On the % scale 0 is the no-effect control and ±100 the full control effect; potency means the concentration at half of the fitted maximal effect.

SMILES	Potency	activity change, negative = inhibition
C/C(=N\NC(=O)c1ccc(N(C)C)cc1)c1ccc(C)cc1C	inconclusive: 17.8 µM [inhibitor, single point]	
CSc1nc(C(=O)N2CCc3c([nH]c4ccccc34)C2c2ccccn2)cs1 (centres undefined)		inactive: -10.8%
COc1nc(-c2ccc(C)cc2)ccc1-c1noc(-c2ccccc2Br)n1	inconclusive: 11.2 µM [activator, partial curve, poor fit]	
COc1ccc(OC)c(C(=O)Nc2c(O)ccc3ccccc23)c1	inconclusive: 35.5 µM [inhibitor, single point]	
COC(=O)c1ccc(Nc2nnc(-c3ccc(C)c(S(=O)(=O)NCC4CCCO4)c3)c3ccccc23)cc1 (centres undefined)	inconclusive: 5.62 µM [inhibitor, single point]	
CCOc1ccc(NC(=O)N2CC=C(c3c[nH]c4ccccc34)CC2)cc1		inactive: -25.9% [at 46.1 µM]
COc1cccc(OCC(Cn2c(C)nc3ccccc32)OC(C)=O)c1 (centres undefined)	inconclusive: 12.6 µM [inhibitor, partial curve, poor fit]	
CCS(=O)(=O)c1nc2ccccc2n1CC(=O)N1CCCCC1	inconclusive: 22.4 µM [inhibitor, single point]	
Cc1ccccc1CN1C(=O)Nc2ccccc2C(=O)N1C(C)(C)C		inactive: 4.72%
CCOc1ccc(CN(C(=O)c2oc3cc(C)ccc3c2C)C2CCS(=O)(=O)C2)cc1 (centres undefined)	active: 13 µM	
CCOC(=O)c1c(C)[nH]c(C)c1S(=O)(=O)N1CCC(C(=O)N2CCN(c3ccc(Cl)cc3)CC2)CC1	inconclusive: 35.5 µM [inhibitor, single point]	
CC(=O)Nc1ccc(S(=O)(=O)Nc2ccc3c(c2)CCC3)cc1		inactive: -26.9% [at 46.1 µM]
CCCCCOP(=O)(OCCCCC)C1(NS(=O)(=O)c2ccccc2)C=CC(=O)c2ccccc21 (centres undefined)	inconclusive: 22.4 µM [inhibitor, single point]	
CCOc1ccccc1NCc1nnc(-c2ccccc2)o1	inconclusive: 1.26 µM [inhibitor, single point]	
O=C(NCc1ccc(F)cc1)Nc1cccc(Cl)c1		inactive: 7.38%
COc1cc(/C=C(\C#N)c2nc3ccc(C)cc3[nH]2)c([N+](=O)[O-])cc1OC	inconclusive: 12.6 µM [inhibitor, single point]	
O=C(c1ccc2c(c1)N(Cc1cccc(Cl)c1)C(=O)c1ccccc1S2(=O)=O)N1CCCCC1	inconclusive: 5.01 µM [inhibitor, full curve]	
Cc1ccc2[nH]c3c(=O)n(CC(=O)N(C)c4cc(Cl)ccc4C)ncc3c2c1		inactive: 7.62% [at 46.1 µM]
O=C(O)c1ccccc1NC(c1ccccc1)c1ccc2cccnc2c1O (centres undefined)	inconclusive: 15.8 µM [inhibitor, partial curve, poor fit]	
CC(C)OCCCNC(=O)c1ccc(Br)cc1		inactive: 20.5%
COc1cccc(OCCCn2cc(/C=C3/C(=N)N4C=C(C)SC4=NC3=O)c3ccccc32)c1	inconclusive: 9.2 µM [activator, partial curve]	
C=CC[C@@H]1C=C[C@H](O/N=C/c2ccc(C(=O)N3[C@H](c4ccc(C)cc4)[C@@H](C)CC[C@H]3C(=O)OC)cc2)[C@@H](CO)O1	inconclusive: 23.1 µM [inhibitor, partial curve]	
Cc1ccc(S(=O)(=O)Nc2ccc3c(c2)n(C)c(=O)n3C)cc1	inconclusive: 35.5 µM [inhibitor, partial curve, poor fit]	

Retrieved by structure from the list above, 6 records:
SMILES	Potency	activity change, negative = inhibition
CCOc1ccc(CN(C(=O)c2oc3cc(C)ccc3c2C)C2CCS(=O)(=O)C2)cc1 (centres undefined)	active: 13 µM	
CCCCCOP(=O)(OCCCCC)C1(NS(=O)(=O)c2ccccc2)C=CC(=O)c2ccccc21 (centres undefined)	inconclusive: 22.4 µM [inhibitor, single point]	
CC(=O)Nc1ccc(S(=O)(=O)Nc2ccc3c(c2)CCC3)cc1		inactive: -26.9% [at 46.1 µM]
COC(=O)c1ccc(Nc2nnc(-c3ccc(C)c(S(=O)(=O)NCC4CCCO4)c3)c3ccccc23)cc1 (centres undefined)	inconclusive: 5.62 µM [inhibitor, single point]	
Cc1ccc(S(=O)(=O)Nc2ccc3c(c2)n(C)c(=O)n3C)cc1	inconclusive: 35.5 µM [inhibitor, partial curve, poor fit]	
COc1cc(/C=C(\C#N)c2nc3ccc(C)cc3[nH]2)c([N+](=O)[O-])cc1OC	inconclusive: 12.6 µM [inhibitor, single point]	

(further entries)

SMILES	Potency	activity change, negative = inhibition
Cc1ccc(CC(=O)Nc2nc3ccccc3s2)cc1	inconclusive: 35.5 µM [inhibitor, single point]	
COc1cc2[nH]c(=O)n(Cc3ccc(C(=O)NCc4ccccc4)cc3)c(=O)c2cc1OC		inactive: -10.4% [at 46.1 µM]
CCC[C@@H]1C[C@@]1(CCC)[C@@H](NC(=O)c1ccccc1)c1ccc(C(=O)OC)cc1		inactive: 0.512%
Cc1ccc(/C=C/C(=O)N2CCN(S(=O)(=O)c3c(C)c(C)cc(C)c3C)CC2)o1	inconclusive: 35.5 µM [inhibitor, single point]	
COc1ccc(Cl)cc1-n1nnc(-c2nc(-c3ccc4c(c3)OCO4)no2)c1C	inconclusive: 17.8 µM [activator, single point]	
CC(C)CCn1c(N)c(C(=O)OCC2CCCO2)c2nc3ccccc3nc21 (centres undefined)	inconclusive: 35.5 µM [inhibitor, single point]	
COc1cccc(OC)c1C(=O)NC(=S)Nc1cc(-c2nc3ccccc3[nH]2)ccc1Cl		inactive: -15.5%
Cc1ccc(-n2ncc3c(NCCCc4ccccc4)ncnc32)cc1	inconclusive: 0.562 µM [inhibitor, full curve, poor fit]	
Cc1cccnc1NC(=O)COc1ccc2oc3c(c2c1)CCCC3	inconclusive: 0.112 µM [inhibitor, full curve, poor fit]	
Clc1ccc(CNCCCSc2ncccn2)cc1Cl		inactive: -3.91% [at 46.1 µM]
Cc1nc(N2CCCC2)c2c(C(=O)Nc3cccc(Cl)c3C)c(C)oc2n1		inactive: 35.7% [at 46.1 µM]
CC(=O)NCCC(=O)Nc1nc(-c2ccc3c(c2)OCCO3)cs1	inconclusive: 5.62 µM [activator, single point]	
CC(=O)OCc1cnc(C)c2oc(=O)c(C(=O)Nc3cccc(F)c3)cc12	active: 0.794 µM	
OCCNc1nc(N2CCN(Cc3ccccc3)CC2)nc2ccccc12		inactive: 0%
COc1ccc(/C=N/NC(=O)CNC(=O)/C=C/c2ccccc2OC)cc1	inconclusive: 35.5 µM [inhibitor, partial curve, poor fit]	
CCOC(=O)NN=C1C[C@@H](O)[C@@H](O)[C@@H]2[C@H]3C(=O)N(CC)C(=O)[C@@H]3CC[C@@H]12	inconclusive: 0.376 µM [activator, partial curve, poor fit]	
COc1ccc(S(=O)(=O)n2nc(-n3c(C)ccc3C)c3c(F)cccc32)cc1OC	inconclusive: 35.5 µM [inhibitor, single point]	
COC(=O)c1sccc1NC(=S)N1CCN(c2ccccc2)CC1	inconclusive: 1.26 µM [inhibitor, single point]	
Cc1ccc(S(=O)(=O)N2CCCCC2)cc1C(=O)NCCc1ccccc1	inconclusive: 1.26 µM [activator, single point]	
CCOc1ccccc1NS(=O)(=O)c1ccc(Br)s1	inconclusive: 4.61 µM [activator, full curve, poor fit]	
Cc1cccc(C)c1NC(=O)C(=O)NCCCN1CCOCC1		inactive: 22.3%
Cc1ccsc1/C=N\NC(=O)c1n[nH]c2c1CCC2	active: 6.31 µM	
CC(C)C(=O)N1CCN(c2ccccc2NC(=O)c2ccco2)CC1	inconclusive: 10 µM [inhibitor, partial curve, poor fit]	

SMILES	Potency	activity change, negative = inhibition
Cc1ccc(-n2ncc3c(NCCCN4CCOCC4)ncnc32)cc1Cl	inconclusive: 5.62 µM [activator, single point]	
Cc1nc(-c2cccc(NC(=O)Cc3ccccc3)c2)cs1	inconclusive: 25.1 µM [inhibitor, partial curve, poor fit]	
O=C(O)c1nc(-c2ccccc2)n(-c2ccccc2)n1		inactive: 8.38%
CC(C)NC(=O)C1CC(=O)N(C(C)c2ccccc2)C1 (centres undefined)	inconclusive: 0.116 µM [activator, full curve, poor fit]	
COc1ccccc1C(=O)NC(=O)COC(=O)c1ccc(C)o1		inactive: -0.428%
CCCN(C(=O)CSc1nc2cc(S(=O)(=O)N(CC)CC)ccc2o1)C1CCS(=O)(=O)C1 (centres undefined)		inactive: -21%
Cc1ccc(-c2nnc(SCC(=O)N3CCCC3)o2)cc1	inconclusive: 20 µM [activator, single point]	
COc1ccc(NC(=O)CS(=O)CC(=O)Nc2ccc(OC)c(OC)c2)cc1 (centres undefined)		inactive: 44.9%
CN(C)c1ccc(N=C/C=C2\N(C)c3ccccc3C2(C)C)cc1	inconclusive: 35.5 µM [inhibitor, single point]	
O=C(CO/N=C/c1ccc(OC(F)F)cc1)NCc1cccs1		inactive: -8.93%
CCOc1ccccc1N(C(=O)c1snc(C(N)=O)c1N)C(C(=O)NC1CCCC1)c1cccs1 (centres undefined)	inconclusive: 35.5 µM [inhibitor, single point]	
COc1cc(C(=O)NCc2ccc(-c3nc4ccccc4o3)cc2)cc(OC)c1OC	inconclusive: 15.8 µM [activator, single point]	
O=c1c2c(nc3cc(-c4cccc(F)c4)[nH]n13)CCC2	inconclusive: 7.94 µM [inhibitor, partial curve, poor fit]	
O=C(CSc1nc(N2CCOCC2)nc(N2CCOCC2)n1)Nc1ccccc1F	inconclusive: 0.316 µM [inhibitor, partial curve, poor fit]	
Cc1ccc(N=C/C(C(=O)C(F)(F)F)=C(\O)c2ccco2)cc1Cl	inconclusive: 11.2 µM [inhibitor, partial curve, poor fit]	
CC(=O)c1ccc(N2CCN(S(=O)(=O)c3ccc4c(c3)CC(C)N4C(=O)C3CCC3)CC2)cc1 (centres undefined)	inconclusive: 4.47 µM [activator, single point]	
CC1CCN(CC(=O)Nc2ccccc2-c2ccccc2)CC1		inactive: 0.432%
COc1cc(NC(=O)c2cc(-c3cccnc3)nc3ccc(Br)cc23)cc(OC)c1	active: 11.2 µM	
CSc1ccc(/C=N/N2CCN(c3ccccc3)CC2)cc1	inconclusive: 35.5 µM [activator, single point]	
CN(Cc1cnccn1)Cc1ccccc1OCC(O)CN1CCc2ccccc2C1 (centres undefined)		inactive: -3.92% [at 46.1 µM]
CSc1nc(C)cc(Nc2c(C)cc(C)cc2C)n1		inactive: 0.401% [at 46.1 µM]
Cc1c(NC(=O)CSc2nc(N)cc(N)n2)c(=O)n(-c2ccccc2)n1C		inactive: -0.306%
COc1cccc(C(=O)Nc2ccc(Cl)c(-c3nc4ccccc4[nH]3)c2)c1	inconclusive: 10 µM [inhibitor, partial curve, poor fit]	
